No constants are given. Whether binding was seen depends on the method and setting. In cells and extracts the contact can be indirect. Binding calls can cover weak binding; strength is not graded here.
Target: DUX4 homeodomain mutant defective in DNA binding (HOX1.V5) (human) (UniProt Q9UBX2)
Experiment: co-IP; HEK293 cells transfected with V5-tagged DUX4 constructs, alone or with Myc-DDK-tagged partners; lysate in 137 mM NaCl, 10 mM Tris-HCl pH 7.4, 1% NP40; IP with V5- or Myc-antibody agarose 16-20 h at 4 °C; western blot

Sequences of proteins named here, by UniProt entry; tags and fusion partners are left off. Residues count along the entry.
UniProt Q07021, residues 74-282: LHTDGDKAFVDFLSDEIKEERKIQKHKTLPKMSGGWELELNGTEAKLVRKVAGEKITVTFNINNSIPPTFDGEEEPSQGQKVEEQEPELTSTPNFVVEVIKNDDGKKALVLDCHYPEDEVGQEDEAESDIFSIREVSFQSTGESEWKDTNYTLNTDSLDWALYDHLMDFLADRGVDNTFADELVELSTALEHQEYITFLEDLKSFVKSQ

binding: binds
Substance: C1QBP, endogenous in human cells (from UniProt Q07021 74-282)
